Where a chain is given by its changes, count along the chain named. No constants are given. Whether binding was seen depends on the method and setting. In cells and extracts the contact can be indirect. Some results given as binding are weak or reduced against the parent protein; the word gives no strength. Sequences can lack the tags named with a protein.
Tests used:
[1] = molecular target: T1, Yku70/Yku80 (Ku) heterodimer with Yku80-FLAG (S. cerevisiae) (UniProt P32807+Q04437); test: co-IP; anti-FLAG M2 magnetic beads, 4 mg whole cell lysate, 1 hour at 4 °C; TMG buffer, washes up to 500 mM NaCl with 0.5% Tween-20; blots with α-myc (Est1) and α-FLAG (Yku80); strains also with TLC1 overexpression or empty vector
T1 sequence 1: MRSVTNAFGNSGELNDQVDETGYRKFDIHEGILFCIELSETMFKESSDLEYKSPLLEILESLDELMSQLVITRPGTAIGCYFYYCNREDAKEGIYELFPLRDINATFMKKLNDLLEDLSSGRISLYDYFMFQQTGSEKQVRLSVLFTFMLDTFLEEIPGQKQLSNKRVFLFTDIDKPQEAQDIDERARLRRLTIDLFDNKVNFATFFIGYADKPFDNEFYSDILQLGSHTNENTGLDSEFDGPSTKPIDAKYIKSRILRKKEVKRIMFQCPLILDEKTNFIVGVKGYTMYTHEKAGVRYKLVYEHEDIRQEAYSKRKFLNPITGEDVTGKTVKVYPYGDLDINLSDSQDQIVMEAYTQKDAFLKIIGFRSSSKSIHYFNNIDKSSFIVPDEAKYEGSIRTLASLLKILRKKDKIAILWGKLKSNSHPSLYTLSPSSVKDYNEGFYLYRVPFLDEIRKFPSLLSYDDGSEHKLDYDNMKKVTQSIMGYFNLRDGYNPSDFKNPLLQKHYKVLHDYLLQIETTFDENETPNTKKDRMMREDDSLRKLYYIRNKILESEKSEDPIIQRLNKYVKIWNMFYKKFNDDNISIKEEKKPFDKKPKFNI
T1 sequence 2: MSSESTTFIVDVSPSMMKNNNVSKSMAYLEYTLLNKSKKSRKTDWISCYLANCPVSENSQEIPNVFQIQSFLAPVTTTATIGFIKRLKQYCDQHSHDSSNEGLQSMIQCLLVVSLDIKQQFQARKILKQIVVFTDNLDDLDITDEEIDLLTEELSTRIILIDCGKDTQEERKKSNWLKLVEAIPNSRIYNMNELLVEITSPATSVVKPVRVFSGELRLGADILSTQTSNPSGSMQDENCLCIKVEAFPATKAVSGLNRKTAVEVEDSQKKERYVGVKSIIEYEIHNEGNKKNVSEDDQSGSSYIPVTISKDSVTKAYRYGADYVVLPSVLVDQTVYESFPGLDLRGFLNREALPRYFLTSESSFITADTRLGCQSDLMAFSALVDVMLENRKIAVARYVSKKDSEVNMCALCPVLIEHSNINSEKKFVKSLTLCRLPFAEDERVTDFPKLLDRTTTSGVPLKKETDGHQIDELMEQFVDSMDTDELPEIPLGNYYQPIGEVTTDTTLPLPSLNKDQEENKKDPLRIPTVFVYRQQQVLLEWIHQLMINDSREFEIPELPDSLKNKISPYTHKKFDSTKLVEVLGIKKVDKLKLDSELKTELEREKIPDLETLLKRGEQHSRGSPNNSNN

[2] = molecular target: T2, Yku70-R456E/Yku80 heterodimer with Yku80-FLAG (S. cerevisiae) (UniProt P32807+Q04437); test: as above
T2 sequence 1: T1 sequence 1 with R456E
T2 sequence 2: T1 sequence 2

[3] = molecular target: T3, Cdc13-FLAG (S. cerevisiae) (UniProt P32797); test: co-IP; anti-FLAG M2 magnetic beads, 7 mg asynchronous whole cell lysate, 1 hour at 4 °C; TMG buffer, washes up to 500 mM NaCl with 0.5% Tween-20; blots with α-myc (Est1) and α-FLAG (Cdc13); wild type, yku70∆, yku80∆, yku70-R456E and yku80-135i strains
T3 sequence: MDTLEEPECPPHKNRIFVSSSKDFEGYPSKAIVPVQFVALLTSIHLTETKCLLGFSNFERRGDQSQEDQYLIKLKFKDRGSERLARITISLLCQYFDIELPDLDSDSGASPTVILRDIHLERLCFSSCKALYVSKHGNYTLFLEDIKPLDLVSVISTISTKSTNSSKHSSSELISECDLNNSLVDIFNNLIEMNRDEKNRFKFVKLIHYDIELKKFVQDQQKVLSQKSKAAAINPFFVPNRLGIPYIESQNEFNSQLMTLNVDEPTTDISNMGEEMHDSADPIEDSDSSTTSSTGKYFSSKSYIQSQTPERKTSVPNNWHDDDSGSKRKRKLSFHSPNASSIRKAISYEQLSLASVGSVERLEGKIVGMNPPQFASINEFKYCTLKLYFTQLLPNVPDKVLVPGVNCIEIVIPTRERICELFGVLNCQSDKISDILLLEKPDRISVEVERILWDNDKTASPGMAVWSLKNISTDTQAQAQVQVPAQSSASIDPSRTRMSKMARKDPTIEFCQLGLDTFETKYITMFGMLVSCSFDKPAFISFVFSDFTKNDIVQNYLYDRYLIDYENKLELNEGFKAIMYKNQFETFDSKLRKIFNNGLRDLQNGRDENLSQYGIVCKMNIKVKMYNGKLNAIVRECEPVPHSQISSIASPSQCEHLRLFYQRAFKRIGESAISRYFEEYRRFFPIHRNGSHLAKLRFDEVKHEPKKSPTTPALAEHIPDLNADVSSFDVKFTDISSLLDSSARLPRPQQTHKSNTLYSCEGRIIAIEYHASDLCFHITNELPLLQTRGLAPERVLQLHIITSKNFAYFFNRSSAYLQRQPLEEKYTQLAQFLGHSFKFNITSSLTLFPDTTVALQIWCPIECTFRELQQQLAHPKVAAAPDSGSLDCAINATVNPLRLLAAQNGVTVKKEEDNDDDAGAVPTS

Measured: binding

B1: Est1-myc (protein, UniProt P17214 1-699)
chain: MDNEEVNEECMRLFFKNARAHLDKHLTSRLTCDENAYITFRCFLDGIHRKSTRFLEELLLKQENMYHNNNYERINDSVIPLVLKLLWLQIHEPTLQWFEHWFHDIMRLSNRRKFRVFRIFQKKMIQFFKITHRYYYDIIEHLCAKYDMNSVISNALFAKLNLMQYTDGLSTHEKIILNTSNPLTFSIVISLQRCVINLGSTHFYKTLLNKPSNKPKSVEGFEKSIRYLNIASLYLPAVGDTYFQRAKIYLITGKFSLYFFELVRGALVRIPSKCALNNLKDFILTPDFPERRRLMKKLAILVSKDLKGEKSFFEGQIVLQFLSIVEHTLVPQSWNASRASNCWLLKEHLQMAALKYHSGNINVILENLAATMGSFDLMFTTRKSKEQKNKLKYADLSERQVFFLDLSFDFIANIIDVVIKPSWQKNMEDFRYLAIIRLLMCWIKSYRSILQYTHRHRKFCTSFALLLNDLINSPLNCSGNIYSHRPKRSYLFREDIIFREFSCINFALTDFNDDYVYDSPDMINNIIGCPTLTKVLSPKEECVLRIRSIIFSGMKFLEKNDTGVIWNASKYKFDLISPNIKIKRQIALSEISSKINVKTQQERVVSSRKVEAKRDEQQRKRAGKIAVTELEKQFANVRRTKKLSPLPEKDGVSSELVKHAASRGRKTITGPLSSDFLSYPDEAIDADEDITVQVPDTPT
binds: all assays above

— PMC6650470
